Assay results published in patent publication US20220306744A1.
Where a chain is given by its changes, count along the chain named. No constants are given. Whether binding was seen depends on the method and setting. Some binding calls cover weakened binding; strength is not graded here. Blank lines part the entries; values can stand above or below the binder they belong to.

Amino acid sequences for entries named in this document (tags omitted). A change or cut given only in a name is not applied to a line headed by its entry.
UniProt Q15116: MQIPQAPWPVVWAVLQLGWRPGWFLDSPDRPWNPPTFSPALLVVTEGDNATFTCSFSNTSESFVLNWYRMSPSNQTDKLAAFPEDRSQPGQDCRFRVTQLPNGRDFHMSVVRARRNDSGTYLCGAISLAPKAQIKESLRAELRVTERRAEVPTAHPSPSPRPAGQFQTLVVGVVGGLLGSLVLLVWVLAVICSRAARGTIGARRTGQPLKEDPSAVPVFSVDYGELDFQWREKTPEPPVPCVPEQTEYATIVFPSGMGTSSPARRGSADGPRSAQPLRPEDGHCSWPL

Legend:
[1] = target: huPD-1 extracellular domain (PepScan peptide arrays) (human); assay: PepScan ELISA, linear and constrained peptides
[2] = target: huPD-1 extracellular domain (PepScan peptide arrays) (human); assay: PepScan ELISA, discontinuous peptides, bivalent format
[3] = target: human PD-1 expressed on cells (CHO TREX human PD1 cell line, full-length human PD-1 sequence) (human) (UniProt Q15116); assay: worded summary of the screens

- binding [3]: binds
B3: 1.20a (VHH)
VHH: EVQLVESGGGLVQPGRSLRLSCAASGFTFDDYAMHWVRQAPGKDLEWVSGISWNGGSMGYADSVKGRFTISRDNAKNSLYLQMNSLRAEDTALYYCVREKGPGLTGSTADYYGLDVWGQGTMVTVSS

- binding [3]: binds
B4: 1.19a (VHH)
VHH: B3 VHH

The next lines start with the binder.

B1: 1.1a (VHH)
VHH: B3 VHH with V5L, L11S, Y32H, D44G, G55S, G66D, N77S
- binding [1]: binds
- binding [2]: binds

B2: 1.26a (VHH)
VHH: B3 VHH with V116A
- binding [3]: binds

B5: 1.51a (VHH)
VHH: EVQLVESGGGVVRPGGSLRLSCAASGFTFDDYAMSWVRQAPGKGLEWVSGITWNGGSTGYADSVKDRFTISRDNAKNSLYLQMNSLRAEDTALYYCVRDKYSYAWSYDGFDIWGQGTMVTVSS
- binding [2]: binds

B6: 1.103a (VHH)
VHH: B5 VHH with G109D
- binding [3]: binds
